Measured values reported in PubChem BioAssay (NCATS).
Values joined by “and” are separate entries in the source; they are usually repeats but may differ in a detail not shown here. Equal entries are not always repeated. The inconclusive results got no clear call from the source; some entries with a clear call stand among them for comparison. Potencies beside an inconclusive call are fits to weak or partial responses and may not hold up. Active and inactive are the calls of the source. Calls follow the shape of the dose curve; as a rule, active = well fitted cell-killing curve with a large enough effect; inconclusive = small, poorly fitted or top-dose-only effect, or effect the other way; inactive = no such curve, though single readings can be large or run the other way.

Experiment: qHTS of pediatric cancer cell lines to identify multiple opportunities for drug repurposing: Confirmatory screen for RD cells (AID 1347124);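 also: cells exposed to compound for 48 h before viability readout; nearly all actives have a fitted effect of over 65% in size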
Conditions: RD rhabdomyosarcoma cell viability; activity change, negative = cytotoxic: at 45.9 µM (top of the series)
Procedure, shortened: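 Cells (500-1,000/well) rested 5 h, then received compounds for 48 h; metabolically active cells were measured by CellTiter-Glo luminescence. Final concentrations spanned up to 46 µM (MIPE, 11-point) or 0.59 nM-46 µM (NPC, 8-point) in primary screens, 11-point in follow-ups.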
% is scaled to controls: 0 for no effect and ±100 for the full control effect; potency is read from the fitted curve at half-maximal effect.

Compound | Potency | activity change, negative = cytotoxic
CNC(=O)c1cc(Oc2ccc(NC(=O)Nc3ccc(Cl)c(C(F)(F)F)c3)cc2)ccn1 | inconclusive: 26.1 µM [cytotoxic, single point] | –
COc1cc2c(cc1OC)[C@@H]1C(=O)c3ccc4c(c3O[C@@H]1CO2)C=CC(C)(C)O4 | inconclusive: 4.14 µM [cytotoxic, full curve] | –
CC(C)(C)c1cc(NC(=O)Nc2ccc(-c3cn4c(n3)sc3cc(OCCN5CCOCC5)ccc34)cc2)no1 | inconclusive: 32.9 µM [cytotoxic, single point] | –
Nc1nc(F)nc2c1ncn2[C@@H]1O[C@H](CO)[C@@H](O)[C@@H]1O | active: 1.65 µM and inconclusive: 2.61 µM [cytotoxic, full curve, poor fit] | –
Cc1[nH]nc2ccc(-c3cncc(OC[C@@H](N)Cc4ccccc4)c3)cc12 | inconclusive: 1.35 µM [cytotoxic, partial curve, poor fit] | –
O=C(CC12CC3CC(CC(C3)C1)C2)Nc1cccc2nc(NCCNCCO)ccc12 | inconclusive: 0.165 µM [cytotoxic, full curve, poor fit] | –
N#Cc1c(NC(=O)c2cccc3ccccc23)sc2c1CCCC2 | inconclusive: 0.827 µM [cytotoxic, full curve] | –
CC(C)[C@H](C(=O)Nc1ccc(C(=O)NO)cc1)c1ccccc1 | active: 1.65 µM | –
CN[C@@H]1CN(c2ccc3c(=O)c(C(=O)O)cn(-c4nccs4)c3n2)C[C@@H]1OC | active: 14.4 µM | –
COc1ccc(-c2ccc3c(N4CCOC[C@H]4C)nc(N4CCOC[C@H]4C)nc3n2)cc1CO | inconclusive: 1.04 µM [cytotoxic, full curve, poor fit] | –
CNC(=O)c1cccc(-c2ccc3c(N4CCOC[C@H]4C)nc(N4CCOC[C@H]4C)nc3n2)c1 | inconclusive: 1.31 µM [cytotoxic, full curve] | –
Nc1ncn([C@H]2C[C@H](O)[C@@H](CO)O2)c(=O)n1 | – | inactive: 12.3%
FC(F)c1nc2ccccc2n1-c1nc(N2CCOCC2)nc(N2CCOCC2)n1 | active: 8.27 µM | –
C[C@H](c1ccc(F)cc1CCCC(=O)O)N(c1cc(F)ccc1F)S(=O)(=O)c1ccc(Cl)cc1 | inconclusive: 32.9 µM [cytotoxic, single point] | –
COc1cccc2c1C(=O)c1c(O)c3c(c(O)c1C2=O)C[C@@](O)(C(=O)CO)C[C@@H]3O[C@H]1C[C@H](N)[C@@H](O)[C@H](C)O1 | active: 3.29 µM | –
O=c1[nH]nc(OCCCc2ccc(Cl)cc2)c(NCc2cccnc2)c1Br | inconclusive: 7.37 µM [cytotoxic, full curve, poor fit] | –
COc1cc2c(cc1OC)[C@@H]1Cc3ccc(OC)c(OC)c3CN1CC2 | inconclusive: 0.928 µM [cytotoxic, full curve, poor fit] | –
NC(=O)Nc1cc(-c2cccc(F)c2)sc1C(=O)N[C@H]1CCCNC1 | inconclusive: 0.165 µM [cytotoxic, full curve, poor fit] | –
CC(C)(N)c1ccc(-c2nc3ccccc3nc2-c2ccccc2)cc1 | – | inactive: -83%
CC(=O)O[C@H]1C(=O)[C@@]2(C)C([C@H](OC(=O)c3ccccc3)[C@]3(O)C[C@H](OC(=O)[C@H](O)[C@@H](NC(=O)c4ccccc4)c4ccccc4)C(C)=C1C3(C)C)[C@]1(OC(C)=O)CO[C@@H]1C[C@@H]2O (some centres undefined) | inconclusive: 0.0465 µM [cytotoxic, full curve] | –
O=S(=O)(O)CCS | inconclusive: 32.9 µM [cytotoxic, single point] | –
COc1cc(CNC(=O)CCCCC=CC(C)C)ccc1O | – | inactive: 2.82%
CS(=O)(=O)Nc1ccc([N+](=O)[O-])cc1Oc1ccccc1 | inconclusive: 26.1 µM [cytotoxic, single point] | –
CC(C)(C)c1cc(C(C)(C)C)c(NC(=O)c2c[nH]c3ccccc3c2=O)cc1O | active: 29.3 µM | –

Copied from the list.
`Nc1nc(F)nc2c1ncn2[C@@H]1O[C@H](CO)[C@@H](O)[C@@H]1O` – Potency: active: 1.65 µM and inconclusive: 2.61 µM [cytotoxic, full curve, poor fit]
`NC(=O)Nc1cc(-c2cccc(F)c2)sc1C(=O)N[C@H]1CCCNC1` – Potency: inconclusive: 0.165 µM [cytotoxic, full curve, poor fit]
